Data as given in US7785566B2 (GE Healthcare, Inc., priority 2003, dated 2010).

Assay: general procedure: Fmoc solid-phase peptide synthesis; Fmoc-Ile-Wang resin; HBTU
Settings: whole synthesis

| Substance | crude mass (scale 0.025 mmol) | isolated mass (scale 0.1 mmol) |
| --- | --- | --- |
| N—((CH2)6-tetraamine)-Gly-Arg-Val-Tyr-Ile-His-Pro-Ile-OH | 25 mg |  |
| cPn216-Gly-Arg-Val-Tyr-Ile-His-Pro-Ile-OH |  | 12 mg |
